Laboratory results reported in patent publication US20140017701A1, “CHIMERIC PDK1 KINASES” (priority 2011, published 2014).
No constants are given. Whether binding was seen depends on the method and setting. For part of these data: Binding seen in cells or lysates may run through a third protein. Some results given as binding are weak or reduced against the parent protein; the word gives no strength. Sequences can lack the tags named with a protein.

T1: His6-tagged PKCι Δ223 (human)
T1 sequence: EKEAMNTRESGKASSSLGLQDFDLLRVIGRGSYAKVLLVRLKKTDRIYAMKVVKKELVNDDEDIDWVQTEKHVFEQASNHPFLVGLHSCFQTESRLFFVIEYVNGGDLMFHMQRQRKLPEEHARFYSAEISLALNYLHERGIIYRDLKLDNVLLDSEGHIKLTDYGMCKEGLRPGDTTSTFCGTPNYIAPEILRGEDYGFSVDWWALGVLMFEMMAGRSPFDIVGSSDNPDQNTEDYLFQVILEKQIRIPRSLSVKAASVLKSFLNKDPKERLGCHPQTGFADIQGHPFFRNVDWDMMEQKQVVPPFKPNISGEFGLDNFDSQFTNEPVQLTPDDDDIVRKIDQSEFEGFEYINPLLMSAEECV

T2: GST-PKCζ wild type (1-592) (human) (UniProt Q05513)
T2 sequence: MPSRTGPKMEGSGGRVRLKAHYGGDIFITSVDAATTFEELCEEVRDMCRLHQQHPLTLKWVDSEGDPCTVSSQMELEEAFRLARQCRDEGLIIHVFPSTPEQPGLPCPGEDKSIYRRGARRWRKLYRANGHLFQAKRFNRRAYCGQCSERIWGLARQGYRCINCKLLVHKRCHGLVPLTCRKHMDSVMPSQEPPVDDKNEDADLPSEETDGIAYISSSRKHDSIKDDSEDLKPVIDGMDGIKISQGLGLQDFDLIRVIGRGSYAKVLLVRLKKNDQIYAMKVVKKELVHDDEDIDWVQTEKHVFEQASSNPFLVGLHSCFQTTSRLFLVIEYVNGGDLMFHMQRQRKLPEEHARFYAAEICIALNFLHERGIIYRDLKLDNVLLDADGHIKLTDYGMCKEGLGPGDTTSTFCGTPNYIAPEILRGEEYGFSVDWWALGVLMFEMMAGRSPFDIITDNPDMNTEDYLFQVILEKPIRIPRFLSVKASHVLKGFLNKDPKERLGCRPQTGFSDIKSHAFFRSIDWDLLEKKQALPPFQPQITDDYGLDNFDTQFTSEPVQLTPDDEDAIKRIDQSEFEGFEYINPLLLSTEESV


Key:
[1] = target: T1, His6-tagged PKCι Δ223 (human); assay: AlphaScreen interaction assay
[2] = target: T2, GST-PKCζ wild type (1-592) (human); assay: GST pull-down from co-transfected HEK293 cells, immunoblot

Binder | binding [1] | binding [2]
GST-PSR-C1 (PKCι 100-185) (protein, not shown: a dimerising Fc or GST) VPERPGMPCPGEDKSIYRRGARRWRKLYCANGHTFQAKRFNRRAHCAICTDRIWGLGRQGYKCINCKLLVHKKCHKLVTIECGRHS | binds | –
GST-C1 (PKCι 131-186) (protein, not shown: a dimerising Fc or GST) GHTFQAKRFNRRAHCAICTDRIWGLGRQGYKCINCKLLVHKKCHKLVTIECGRHSL | binds | –
myc-tagged PDK1 (enzyme, not shown: small tags and cut ends) MARTTSQLYDAVPIQSSVVLCSCPSPSMVRTQTESSTPPGIPGGSRQGPAMDGTAAEPRPGAGSLQHAQPPPQPRKKRPEDFKFGKILGEGSFSTVVLARELATSREYAIKILEKRHIIKENKVPYVTRERDVMSRLDHPFFVKLYFTFQDDEKLYFGLSYAKNGELLKYIRKIGSFDETCTRFYTAEIVSALEYLHGKGIIHRDLKPENILLNEDMHIQITDFGTAKVLSPESKQARANSFVGTAQYVSPELLTEKSACKSSDLWALGCIIYQLVAGLPPFRAGNEYLIFQKIIKLEYDFPEKFFPKARDLVEKLLVLDATKRLGCEEMEGYGPLKAHPFFESVTWENLHQQTPPKLTAYLPAMSEDDEDCYGNYDNLLSQFGCMQVSSSSSSHSLSASDTGLPQRSGSNIEQYIHDLDSNSFELDLQFSEDEKRLLLEKQAGGNPWHQFVENNLILKMGPVDKRKGLFARRRQLLLTEGPHLYYVDPVNKVLKGEIPWSQELRPEAKNFKTFFVHTPNRTYYLMDPSGNAHKWCRKIQEVWRQRYQSHPDAAVQ | – | binds
